Drawing on the supplement of paper PMC4862054, this text covers normalised response for eight molecules.

The structures appear in SMILES notation. Most values lie at the level of the controls, where differences are scatter.

What all share (assay): normalised response (% of control), CellTox Green; higher = less cell death (100 = DMSO, 0 = benzethonium chloride kill control)
Holding throughout (settings): incubation time: 72 h

One assay has as its system HCC1937. The procedure: (§1)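 DSRT, 72 h incubation, CellTox Green / CellTiter-Glo readout. Signal is normalised to DMSO and benzethonium chloride controls. Value is the normalised response at the lowest tested concentration.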
A further assay relates to CAL-85-1. As for the experimental part: as §1
The subject of the next assay is Hs578T. The procedure: as §1
The next assay deals with BT-474. As for the experimental part:
as §1

For the next assay, the system named is DU-4475. The procedure: as §1
In another assay the test system is MFM-223. The procedure:
as §1

The next assay has as its system MDA-MB-231. As for the experimental part:
as §1

A further assay deals with HDQ-P1. The procedure: as §1
For another assay, the system named is BT-549. As for the experimental part: as §1
The test system of the next assay is MCF-10A. As for the experimental part:
as §1

The next assay concerns HCC1599. The procedure:
as §1

Another assay deals with CAL-148. As for the experimental part: as §1
Another assay deals with MDA-MB-453. The procedure:
as §1

A further assay relates to MDA-MB-468. As for the experimental part:
as §1

Another assay relates to CAL-120. The procedure: as §1
Another assay relates to MDA-MB-436. As for the experimental part: as §1
The test system of the next assay is CAL-51. As for the experimental part:
as §1

For the next assay, the system named is HCC1143. As for the experimental part: as §1

With `CCN(CC)CCOc1ccc(C(=C(Cl)c2ccccc2)c2ccccc2)cc1` [Clomifene] (1 nM), the normalised response is 91.7% in the assay with HCC1937; 94.5% with CAL-85-1; 70.9% with Hs578T; 102% in the assay on BT-474; 103% with DU-4475; 98.4% in the assay with MFM-223. The normalised response with MDA-MB-231 stood at 105%; in the assay with HDQ-P1, 104%; with BT-549, 102%; in the assay on MCF-10A, 103%; in the assay on HCC1599 it was 95.2%; in the assay on CAL-148, 101%. Besides, the normalised response in the assay with MDA-MB-453 was found to be 110%; in the assay on MDA-MB-468, 93.9%; in the assay on CAL-120 it was 100%; in the assay on MDA-MB-436, 86.2%; with CAL-51, 102%.
On to `C[C@@H](Oc1cc(-c2cnn(C3CCNCC3)c2)cnc1N)c1c(Cl)ccc(F)c1Cl` [Crizotinib] (0.1 nM), for which the normalised response in the assay with HCC1937 was 52.5%; in the assay on CAL-85-1 it was 106%; with Hs578T, 107%; in the assay with BT-474 it was 102%; in the assay on DU-4475, 102%; with MFM-223 it was 82.6%. Further, the normalised response came to 116% in the assay with HCC1143; 55.9% in the assay on MDA-MB-231; 71.1% with HDQ-P1; 106% in the assay with BT-549; 97.9% with MCF-10A; 108% in the assay with HCC1599. The normalised response was found to be 103% in the assay on CAL-148; 112% with MDA-MB-453; 112% in the assay with MDA-MB-468; 95.4% with CAL-120; 81.3% with MDA-MB-436; 113% with CAL-51.
In the case of `CC(C)C[C@H](NC(=O)[C@@H](COC(C)(C)C)NC(=O)[C@H](Cc1ccc(O)cc1)NC(=O)[C@H](CO)NC(=O)[C@H](Cc1c[nH]c2ccccc12)NC(=O)[C@H](Cc1cnc[nH]1)NC(=O)[C@@H]1CCC(=O)N1)C(=O)N[C@@H](CCCNC(=N)N)C(=O)N1CCC[C@H]1C(=O)NNC(N)=O` [Goserelin] (1 nM), the normalised response in the assay on HCC1937 stood at 95.9%; in the assay on CAL-85-1 it was 94.2%; in the assay with Hs578T, 69.7%; with BT-474, 96.3%; with DU-4475 it was 97.4%; in the assay with MFM-223 it was 99.2%. For the same molecule, the normalised response in the assay with HCC1143 came to 105%; with MDA-MB-231, 81%; with HDQ-P1 it was 74.5%; in the assay with BT-549, 102%; with MCF-10A, 102%; in the assay on HCC1599, 93.4%. Moreover, the normalised response with CAL-148 was determined as 76.8%; in the assay on MDA-MB-453 it was 97.6%; in the assay with MDA-MB-468, 129%; in the assay on CAL-120, 99.2%; in the assay on MDA-MB-436 it was 56.7%; in the assay with CAL-51 it was 110%.
Take `C[C@]12O[C@H](C[C@]1(O)CO)n1c3ccccc3c3c4c(c5c6ccccc6n2c5c31)CNC4=O` [Lestaurtinib] (0.1 nM): the normalised response worked out at 60.4% in the assay on HCC1937; 97.7% with CAL-85-1; 98% in the assay on Hs578T; 100% with BT-474; 95.6% in the assay with DU-4475; 87.8% in the assay with MFM-223. Further, the normalised response was 102% with HCC1143; 101% in the assay with MDA-MB-231; 104% in the assay with HDQ-P1; 95.8% with BT-549; 107% in the assay with MCF-10A; 92.2% in the assay on HCC1599. Besides, the normalised response was found to be 94.3% in the assay with CAL-148; 99.4% in the assay on MDA-MB-453; 59.3% in the assay with MDA-MB-468; 95.5% in the assay with CAL-120; 95.3% in the assay with MDA-MB-436; 64.3% with CAL-51.
On to `COc1ccc(C2=N[C@@H](c3ccc(Cl)cc3)[C@@H](c3ccc(Cl)cc3)N2C(=O)N2CCNC(=O)C2)c(OC(C)C)c1` [Nutlin-3] (1 nM), for which the normalised response in the assay with HCC1937 was determined as 92.6%; in the assay with CAL-85-1, 101%; with Hs578T, 108%; in the assay on BT-474, 101%; in the assay on DU-4475, 103%; with MFM-223 it was 106%. Moreover, the normalised response in the assay with HCC1143 stood at 124%; in the assay with MDA-MB-231, 109%; in the assay with HDQ-P1 it was 104%; in the assay with BT-549 it was 90.1%; in the assay on MCF-10A it was 97.2%; in the assay on HCC1599, 102%. For the same molecule, the normalised response with CAL-148 was 98.9%; in the assay with MDA-MB-453, 106%; in the assay with MDA-MB-468 it was 97.2%; in the assay on CAL-120, 98.2%; in the assay on MDA-MB-436 it was 91.8%; in the assay with CAL-51, 89.7%.
In the case of `CC(=O)O[C@H]1C(=O)[C@@]2(C)[C@H]([C@H](OC(=O)c3ccccc3)[C@]3(O)C[C@H](OC(=O)[C@H](O)[C@@H](NC(=O)c4ccccc4)c4ccccc4)C(C)=C1C3(C)C)[C@]1(OC(C)=O)CO[C@@H]1C[C@@H]2O` [Paclitaxel] (0.1 nM), the normalised response in the assay on HCC1937 came to 87.6%; in the assay with CAL-85-1, 97%; in the assay with Hs578T, 73.8%; with BT-474, 101%; with DU-4475, 96.1%; in the assay on MFM-223, 102%. Also, the normalised response is 121% with HCC1143; 104% with MDA-MB-231; 73.7% in the assay on HDQ-P1; 95% in the assay with BT-549; 96.7% with MCF-10A; 98.1% in the assay with HCC1599. Besides, the normalised response with CAL-148 stood at 102%; with MDA-MB-453 it was 88%; in the assay with MDA-MB-468, 110%; in the assay with CAL-120 it was 100%; in the assay on MDA-MB-436 it was 97%; with CAL-51 it was 68.6%.
As for `CNNCc1ccc(C(=O)NC(C)C)cc1` [Procarbazine] (1 nM), the normalised response is 103% in the assay on HCC1937; 102% in the assay on CAL-85-1; 114% in the assay with Hs578T; 98.5% in the assay with BT-474; 109% with DU-4475; 98.6% in the assay on MFM-223. For the same molecule, the normalised response was determined as 124% in the assay on HCC1143; 113% with MDA-MB-231; 109% with HDQ-P1; 101% in the assay on BT-549; 98.7% in the assay on MCF-10A; 112% with HCC1599. In addition, the normalised response came out at 81.9% with CAL-148; 102% in the assay on MDA-MB-453; 66.8% with MDA-MB-468; 102% in the assay with CAL-120; 103% with MDA-MB-436; 113% in the assay with CAL-51.
For `O=C(c1ccc(OCCN2CCCCC2)cc1)c1c(-c2ccc(O)cc2)sc2cc(O)ccc12` [Raloxifene] (1 nM), the normalised response with HCC1937 is 114%; with CAL-85-1 it was 95.5%; in the assay on Hs578T, 99%; in the assay on BT-474, 99%; in the assay on DU-4475, 108%; in the assay with HCC1143, 79.2%. The normalised response was found to be 112% in the assay on MDA-MB-231; 102% in the assay with HDQ-P1; 104% in the assay with BT-549; 106% with MCF-10A; 111% in the assay with HCC1599; 103% in the assay on CAL-148. The normalised response in the assay on MDA-MB-453 was 104%; in the assay with MDA-MB-468 it was 73.1%; in the assay on CAL-120, 101%; in the assay on MDA-MB-436, 88%; in the assay on CAL-51 it was 124%.
